Reference: patent publication US11696960B2, “Methods and compounds for detection and binding of aldehydes” (UNIVERSITY OF OTTAWA, priority 2017, dated 2023)

Experiment: Hydrazo-CEST MRI phantom imaging (3 T and 7 T) and in situ hydrazone formation
Details: 37° C., pH 7.4, 40 mM
Description: In the upper panel, a Phantom image and Z-spectra of hydrazine 2f and hydrazones 3f and 4f were acquired at the indicated field strength, 37° C., pH 7.4, and 40 mM concentration.
Values indicate the % MTRasym±the standard deviation of the off-resonance measurements once the system had reached steady state.
The kinetics of Hydrazo-CEST signal production through hydrazone formation were also evaluated in the MRI at 37° C. in 1×PBS at pH=7.4 (FIG. 28). Either PBS or a PBS solution of 2-formylbenzenesulfonic acid at a final concentration of 20 mM was injected into the imaging phantom, and Z-spectra were acquired every 4.5 min to monitor hydrazone formation.
A single saturation peak at 6.4 ppm was observed 4.5 min after aldehyde injection. […] This MRI data confirms that Hydrazo-CEST probes are rapidly activated by aldehydes under physiological conditions, and are readily detectable by 7 T MRI. Both hydrazine and hydrazone functionalities are utilized in medications broadly spanning indications from anti-infectives and anti-parasitics, to anti-cancer agents.

**Q.** For `C/C=N/Nc1ccc(OC)cc1C(=O)O` [Compound 4f], which “frequency offset from water” value is on record?
**A.** Its value is 6.4 ppm.

**Q.** Which “frequency offset from water” value does the source give for `COc1ccc(NN=Cc2ccccc2S(=O)(=O)O)c(C(=O)O)c1` [Compound 3f] here?
**A.** Its value is 6.4 ppm.
